Measured values reported in PMC4776158.
No constants are given. Whether binding was seen depends on the method and setting. Some binding calls cover weakened binding; strength is not graded here.

The chains behind the UniProt entries cited, without tags or fusion partners. Residues count along the entry.
UniProt P04133, residues 2-952: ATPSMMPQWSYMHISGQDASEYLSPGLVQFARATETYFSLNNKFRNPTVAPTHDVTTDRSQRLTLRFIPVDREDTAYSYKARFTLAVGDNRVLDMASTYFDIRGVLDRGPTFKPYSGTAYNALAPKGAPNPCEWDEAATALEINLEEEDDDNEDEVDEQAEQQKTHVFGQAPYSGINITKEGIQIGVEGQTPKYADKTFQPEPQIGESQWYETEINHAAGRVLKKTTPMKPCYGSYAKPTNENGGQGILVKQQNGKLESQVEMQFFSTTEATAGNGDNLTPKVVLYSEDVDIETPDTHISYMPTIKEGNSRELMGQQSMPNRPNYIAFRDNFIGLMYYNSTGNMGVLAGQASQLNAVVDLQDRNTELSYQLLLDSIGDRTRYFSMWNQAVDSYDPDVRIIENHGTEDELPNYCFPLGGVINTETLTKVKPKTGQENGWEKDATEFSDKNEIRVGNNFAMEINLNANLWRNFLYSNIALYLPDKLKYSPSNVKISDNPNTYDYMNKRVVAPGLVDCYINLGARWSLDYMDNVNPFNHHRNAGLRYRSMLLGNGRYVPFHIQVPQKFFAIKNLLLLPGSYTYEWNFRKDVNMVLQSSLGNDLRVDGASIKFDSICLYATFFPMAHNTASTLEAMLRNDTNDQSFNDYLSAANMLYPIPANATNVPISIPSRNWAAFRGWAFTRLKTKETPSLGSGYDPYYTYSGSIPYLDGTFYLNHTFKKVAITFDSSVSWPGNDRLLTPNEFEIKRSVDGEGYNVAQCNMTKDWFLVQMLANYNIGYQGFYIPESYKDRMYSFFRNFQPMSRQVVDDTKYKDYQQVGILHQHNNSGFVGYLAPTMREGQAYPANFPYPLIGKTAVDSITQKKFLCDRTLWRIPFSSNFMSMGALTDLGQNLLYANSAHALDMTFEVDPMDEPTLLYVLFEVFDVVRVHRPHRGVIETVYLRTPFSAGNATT
UniProt P24933: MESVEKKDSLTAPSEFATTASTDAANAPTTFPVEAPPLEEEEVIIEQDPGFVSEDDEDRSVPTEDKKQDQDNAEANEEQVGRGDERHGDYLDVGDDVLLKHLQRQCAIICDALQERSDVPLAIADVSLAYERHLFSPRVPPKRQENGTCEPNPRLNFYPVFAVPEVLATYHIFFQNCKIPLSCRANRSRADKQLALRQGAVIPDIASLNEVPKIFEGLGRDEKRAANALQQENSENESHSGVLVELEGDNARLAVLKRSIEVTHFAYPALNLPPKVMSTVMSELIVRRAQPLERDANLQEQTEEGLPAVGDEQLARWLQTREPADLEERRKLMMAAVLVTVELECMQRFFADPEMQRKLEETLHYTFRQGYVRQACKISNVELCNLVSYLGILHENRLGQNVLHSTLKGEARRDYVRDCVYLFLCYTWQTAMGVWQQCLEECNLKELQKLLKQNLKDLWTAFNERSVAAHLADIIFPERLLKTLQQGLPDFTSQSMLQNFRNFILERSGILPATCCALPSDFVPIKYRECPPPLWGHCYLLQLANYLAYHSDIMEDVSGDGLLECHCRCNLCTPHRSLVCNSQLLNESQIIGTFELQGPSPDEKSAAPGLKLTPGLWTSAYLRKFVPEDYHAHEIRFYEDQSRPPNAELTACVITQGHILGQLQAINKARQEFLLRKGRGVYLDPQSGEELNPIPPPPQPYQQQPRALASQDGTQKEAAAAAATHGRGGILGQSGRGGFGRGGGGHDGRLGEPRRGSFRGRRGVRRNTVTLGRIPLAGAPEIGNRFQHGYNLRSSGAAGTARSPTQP

Columns and labels:
[1] = target: hexon from Ad5 (5-Hexon) (adenovirus serotype 5) (UniProt P04133); assay: native gel or EMSA; hexon plasmids co-transfected with the Ad5 L4-100K plasmid into HEK293; total cell extracts up to 96 h, hexon trimers separated by native-PAGE, immunoblot with anti-hexon goat pAbs
[2] = target: HA-tagged Ad5 L4-100K (adenovirus serotype 5) (UniProt P24933); assay: native gel or EMSA; hexon plasmids co-transfected with Ad5 L4-100K; Western blotting 'as described above' with anti-hexon goat pAb for the hexon-L4-100K complex (~800kD); L4-100K detected with anti-HA mouse mAb
[3] = target: hexon expressed from the genomic plasmid pAd5 (adenovirus serotype 5) (UniProt P04133); assay: native gel or EMSA; HEK293 transfected with genomic plasmids; total cell extracts, hexon trimers separated by native-PAGE, immunoblot with anti-hexon goat pAbs from serotype 5 and serotype 37

Substance | binding [1] | binding [2] | binding [3]
hexon from Ad5 (5-Hexon) (from UniProt P04133 2-952) | binds | no binding | 
hexon expressed from the genomic plasmid pAd5 (from UniProt P04133 2-952) |  |  | binds
